In article PMC9679496:
Results are given in words; binding and its absence hold for the method and conditions named. In cells and extracts the contact can be indirect. Some entries that bind do so weakly or less than the wild type.

Chains of the proteins cited; added tags and fusions are not shown.
UniProt O43474: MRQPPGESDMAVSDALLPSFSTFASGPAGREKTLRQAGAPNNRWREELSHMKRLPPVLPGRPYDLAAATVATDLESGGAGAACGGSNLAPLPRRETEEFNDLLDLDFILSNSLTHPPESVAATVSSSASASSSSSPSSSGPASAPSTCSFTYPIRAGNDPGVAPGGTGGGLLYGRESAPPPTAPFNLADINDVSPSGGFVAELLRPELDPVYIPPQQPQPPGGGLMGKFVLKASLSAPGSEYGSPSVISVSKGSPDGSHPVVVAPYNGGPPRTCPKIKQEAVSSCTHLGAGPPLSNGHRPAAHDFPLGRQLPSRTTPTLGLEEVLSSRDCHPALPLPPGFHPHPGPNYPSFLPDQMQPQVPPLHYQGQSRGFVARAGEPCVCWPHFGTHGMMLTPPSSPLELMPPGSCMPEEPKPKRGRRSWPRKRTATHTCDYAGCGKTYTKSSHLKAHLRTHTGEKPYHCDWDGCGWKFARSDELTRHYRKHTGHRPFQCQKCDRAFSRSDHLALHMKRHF
UniProt Q09472: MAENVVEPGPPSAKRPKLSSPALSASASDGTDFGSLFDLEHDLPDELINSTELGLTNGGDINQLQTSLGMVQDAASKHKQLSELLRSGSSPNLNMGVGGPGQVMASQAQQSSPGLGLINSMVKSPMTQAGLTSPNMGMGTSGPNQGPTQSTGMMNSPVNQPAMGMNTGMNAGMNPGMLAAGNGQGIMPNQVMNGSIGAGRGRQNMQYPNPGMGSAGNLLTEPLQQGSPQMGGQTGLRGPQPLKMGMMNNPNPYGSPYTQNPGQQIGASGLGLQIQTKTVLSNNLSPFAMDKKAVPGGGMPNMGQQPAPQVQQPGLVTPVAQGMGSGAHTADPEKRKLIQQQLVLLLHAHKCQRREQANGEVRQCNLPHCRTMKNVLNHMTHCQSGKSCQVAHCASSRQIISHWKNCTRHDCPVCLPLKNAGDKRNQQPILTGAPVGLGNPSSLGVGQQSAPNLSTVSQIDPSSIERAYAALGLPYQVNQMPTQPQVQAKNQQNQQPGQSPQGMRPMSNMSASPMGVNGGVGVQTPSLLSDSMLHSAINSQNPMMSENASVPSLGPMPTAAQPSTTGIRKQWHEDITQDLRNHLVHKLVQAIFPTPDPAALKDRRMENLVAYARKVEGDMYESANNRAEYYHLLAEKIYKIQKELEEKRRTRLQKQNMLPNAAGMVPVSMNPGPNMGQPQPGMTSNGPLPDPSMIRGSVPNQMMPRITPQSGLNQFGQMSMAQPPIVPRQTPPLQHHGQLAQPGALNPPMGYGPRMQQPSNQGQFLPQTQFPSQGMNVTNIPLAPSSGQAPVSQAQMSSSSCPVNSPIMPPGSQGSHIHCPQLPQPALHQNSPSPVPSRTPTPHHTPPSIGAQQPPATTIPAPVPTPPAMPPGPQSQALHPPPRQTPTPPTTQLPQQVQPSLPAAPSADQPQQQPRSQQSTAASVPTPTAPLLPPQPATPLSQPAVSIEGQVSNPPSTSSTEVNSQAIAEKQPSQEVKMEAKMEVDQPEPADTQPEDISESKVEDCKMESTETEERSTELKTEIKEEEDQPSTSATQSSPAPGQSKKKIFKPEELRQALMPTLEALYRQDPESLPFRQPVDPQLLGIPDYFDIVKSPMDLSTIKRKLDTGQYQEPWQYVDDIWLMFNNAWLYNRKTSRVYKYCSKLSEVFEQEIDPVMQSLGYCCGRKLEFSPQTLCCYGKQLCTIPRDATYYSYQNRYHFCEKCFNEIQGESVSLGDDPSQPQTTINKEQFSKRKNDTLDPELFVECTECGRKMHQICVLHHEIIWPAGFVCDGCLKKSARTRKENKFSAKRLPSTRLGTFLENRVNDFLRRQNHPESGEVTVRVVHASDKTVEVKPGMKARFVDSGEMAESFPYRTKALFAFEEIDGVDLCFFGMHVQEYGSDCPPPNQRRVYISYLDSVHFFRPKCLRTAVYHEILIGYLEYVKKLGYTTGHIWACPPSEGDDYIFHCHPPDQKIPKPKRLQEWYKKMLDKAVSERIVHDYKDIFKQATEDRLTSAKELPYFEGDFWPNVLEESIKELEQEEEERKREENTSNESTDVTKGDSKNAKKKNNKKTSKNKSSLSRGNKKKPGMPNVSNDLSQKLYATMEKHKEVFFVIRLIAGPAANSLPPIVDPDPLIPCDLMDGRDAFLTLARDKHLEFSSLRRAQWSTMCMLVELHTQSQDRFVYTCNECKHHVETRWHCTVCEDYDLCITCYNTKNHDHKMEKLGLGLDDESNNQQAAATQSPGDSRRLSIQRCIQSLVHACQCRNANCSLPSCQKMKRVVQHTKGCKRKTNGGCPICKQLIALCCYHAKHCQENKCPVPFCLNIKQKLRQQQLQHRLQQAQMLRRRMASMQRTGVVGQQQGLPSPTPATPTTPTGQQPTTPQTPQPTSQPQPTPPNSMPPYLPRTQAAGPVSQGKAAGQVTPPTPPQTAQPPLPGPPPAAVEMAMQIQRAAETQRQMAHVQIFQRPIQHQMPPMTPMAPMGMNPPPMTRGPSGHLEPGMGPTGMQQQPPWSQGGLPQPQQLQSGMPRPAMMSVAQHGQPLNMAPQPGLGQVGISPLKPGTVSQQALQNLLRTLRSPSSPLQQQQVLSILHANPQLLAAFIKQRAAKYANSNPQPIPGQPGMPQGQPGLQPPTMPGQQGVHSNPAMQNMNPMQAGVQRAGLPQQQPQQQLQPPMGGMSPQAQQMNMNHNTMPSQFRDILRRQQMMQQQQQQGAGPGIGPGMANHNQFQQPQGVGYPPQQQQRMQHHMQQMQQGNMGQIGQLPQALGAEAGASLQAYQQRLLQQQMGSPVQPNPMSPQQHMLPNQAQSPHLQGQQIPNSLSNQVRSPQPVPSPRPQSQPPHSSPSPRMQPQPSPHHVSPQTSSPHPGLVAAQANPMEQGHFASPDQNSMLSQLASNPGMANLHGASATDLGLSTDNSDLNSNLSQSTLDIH
UniProt Q9Y5W3: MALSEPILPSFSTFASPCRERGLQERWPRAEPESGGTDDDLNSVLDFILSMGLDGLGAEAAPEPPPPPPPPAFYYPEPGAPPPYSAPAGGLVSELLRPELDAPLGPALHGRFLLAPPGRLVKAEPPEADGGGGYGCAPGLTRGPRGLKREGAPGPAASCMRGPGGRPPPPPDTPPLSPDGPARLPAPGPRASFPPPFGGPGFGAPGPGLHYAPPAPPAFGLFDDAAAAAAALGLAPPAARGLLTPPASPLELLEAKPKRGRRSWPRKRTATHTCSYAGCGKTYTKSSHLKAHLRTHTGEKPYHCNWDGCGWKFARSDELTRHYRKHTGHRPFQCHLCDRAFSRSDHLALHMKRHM

Assays:
[1] = target: GST-KLF4-TAD (human KLF4 amino acids 91-116, transactivation domain, fused to GST) (human); assay: pull-down; Sepharose-4B bound GST-fusion proteins incubated with hLMVEC nuclear extracts at 4°C, washed 5 times with nuclear extraction buffer; Western blot with anti-KLF2; only the target purified
[2] = target: Krüppel Like Factor-4 (KLF4), endogenous in human lung microvascular endothelial cells (human (endogenous in hLMVECs)) (UniProt O43474); assay: co-IP; endogenous proteins; RIPA buffer solubilized nuclear lysates of confluent hLMVECs; reciprocal IP with anti-KLF2, anti-KLF4, anti-p300 or control IgG, Protein-G Sepharose, 4°C, washed 5 times with Tris pH 7.5; Western blot
[3] = target: p300, endogenous in human lung microvascular endothelial cells (human (endogenous in hLMVECs)) (UniProt Q09472); assay: as above
[4] = target: Krüppel Like Factor-2 (KLF2), endogenous in human lung microvascular endothelial cells (human (endogenous in hLMVECs)) (UniProt Q9Y5W3); assay: as above

Row | binding [1] | binding [2] | binding [3] | binding [4] | Substance
1 | binds | binds | binds |  | Krüppel Like Factor-2 (KLF2), endogenous in human lung microvascular endothelial cells (from UniProt Q9Y5W3 1-355)
2 |  |  | binds | binds | Krüppel Like Factor-4 (KLF4), endogenous in human lung microvascular endothelial cells (from UniProt O43474 1-513)
3 |  | binds |  | binds | p300, endogenous in human lung microvascular endothelial cells (from UniProt Q09472 1-2414)
